Results: article PMC7870818, “SPRTN protease-cleaved MRE11 decreases DNA repair and radiosensitises cancer cells”
Positions count from the first letter of the chain named. No constants are given. Whether binding was seen depends on the method and setting. In cells and extracts the contact can be indirect. Some entries that bind do so weakly or less than the wild type. Where a sequence is shown, tags or fusion partners need not be part of it.

Experiments:
flag-SPRTN WT = target: T1, flag-SPRTN WT (UniProt Q9H040); assay: co-IP; 293T cells transfected with flag-SPRTN WT or E112A; whole cell lysate in 50 mM Tris-HCl pH 7.4, 150 mM NaCl, 0.1% NP-40, 1 mM EDTA, 5% glycerol with 500 U/ml benzonase at 4 C; anti-flag M2 antibody, five washes, elution with 3xFlag peptide; blots for p97 and MRE11
T1 sequence: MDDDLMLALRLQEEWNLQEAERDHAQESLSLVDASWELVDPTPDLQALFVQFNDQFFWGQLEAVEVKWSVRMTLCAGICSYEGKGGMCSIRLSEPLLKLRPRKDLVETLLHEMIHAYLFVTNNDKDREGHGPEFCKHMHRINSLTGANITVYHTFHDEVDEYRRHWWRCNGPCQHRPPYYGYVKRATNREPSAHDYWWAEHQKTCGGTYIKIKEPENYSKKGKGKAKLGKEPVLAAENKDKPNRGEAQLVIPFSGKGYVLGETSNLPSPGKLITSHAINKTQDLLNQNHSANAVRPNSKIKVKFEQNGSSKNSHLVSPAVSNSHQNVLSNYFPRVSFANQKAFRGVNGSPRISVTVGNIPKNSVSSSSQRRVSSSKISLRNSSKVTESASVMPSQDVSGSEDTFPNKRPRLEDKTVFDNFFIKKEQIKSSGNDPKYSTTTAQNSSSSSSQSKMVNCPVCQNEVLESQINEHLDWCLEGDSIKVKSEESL

flag-SPRTN E112A = target: T2, flag-SPRTN E112A (UniProt Q9H040); assay: as above
T2 sequence: T1 sequence with E112A

binding (flag-SPRTN WT): binds
binding (flag-SPRTN E112A): binds
Substance: p97 (from UniProt P55072 1-806)
